PubChem BioAssay AID330 (DTP/NCI, 2004)
The list is a part of this screen's results and no random one: it gathers some chemical classes. Other doses and runs of a compound may be missing. T/C: endpoint of the treated group in % of that of the vehicle group. Some entries give survivors of the animals treated and no T/C: the source files T/C as zero there, which appears to mark a toxic dose or a test without result, not a measured value. Survivors were counted at the toxicity check, usually on the fifth day, unless a day is given; later deaths do not show. Schedules are NCI's codes, taken here to give the interval after Q, in days (D) or hours (H), and the number of doses after X. For survival time, this PubChem deposit counts one and a half times the control or more as active, and values a quarter to a half above the control carry no call in these data; other NCI protocols may use other cut-offs. Some T/C values are marked as having no survivor count here; that says nothing about deaths at the dose. Some doses were run more than once; the results are listed from low to high.

Test system: P388 leukemia ip, CD2F1 mice, survival T/C
Experiment: NCI In Vivo Anticancer Drug Screen. Data for tumor model P388 Leukemia (intraperitoneal) in CD2F1 (CDF1) mice
Settings: T/C endpoint: median survival time, higher T/C = longer survival
[1] = dose: 12.5 mg/kg/injection, schedule: Q01DX009 (ip), vehicle: saline with Tween-80
[2] = dose: 25.0 mg/kg/injection, schedule: Q01DX009 (ip), vehicle: saline with Tween-80
[3] = dose: 25.0 mg/kg/injection, schedule: Q04DX003 (ip), vehicle: saline with Tween-80
[4] = dose: 50.0 mg/kg/injection, schedule: Q01DX009 (ip), vehicle: saline with Tween-80
[5] = dose: 50.0 mg/kg/injection, schedule: Q04DX003 (ip), vehicle: saline with Tween-80

ClCCN(CCCl)c1ccccc1
T/C (dose: 3.12 mg/kg/injection, schedule: Q01DX009 (ip), vehicle: Klucel (hydroxypropylcellulose) (HPC)): 121 % of control [survivor count not shown]
T/C (dose: 3.13 mg/kg/injection, schedule: Q01DX009 (ip), vehicle: saline with Tween-80): 110 % of control [survivor count not shown]
T/C (dose: 6.0 mg/kg/injection, schedule: Q01DX009 (ip), vehicle: saline with Tween-80): 146 % of control [survivor count not shown]
T/C (dose: 6.25 mg/kg/injection, schedule: Q01DX009 (ip), vehicle: Klucel (hydroxypropylcellulose) (HPC)): 121 [survivor count not shown] and 134 % of control [survivor count not shown]
T/C (dose: 6.25 mg/kg/injection, schedule: Q01DX009 (ip), vehicle: saline with Tween-80): 119 % of control [survivor count not shown]
T/C (dose: 8.0 mg/kg/injection, schedule: Q04DX003 (ip), vehicle: Klucel (hydroxypropylcellulose) (HPC)): 118 % of control
T/C (dose: 12.0 mg/kg/injection, schedule: Q01DX009 (ip), vehicle: saline with Tween-80): 146 % of control [survivor count not shown]
T/C (dose: 12.5 mg/kg/injection, schedule: Q01DX009 (ip), vehicle: Klucel (hydroxypropylcellulose) (HPC)): 131 [survivor count not shown] and 141 % of control [survivor count not shown]
T/C [1]: 146 % of control [survivor count not shown]
T/C (dose: 16.0 mg/kg/injection, schedule: Q04DX003 (ip), vehicle: Klucel (hydroxypropylcellulose) (HPC)): 141 % of control
T/C (dose: 24.0 mg/kg/injection, schedule: Q01DX009 (ip), vehicle: saline with Tween-80): 171 % of control [survivor count not shown]
T/C (dose: 25.0 mg/kg/injection, schedule: Q01DX009 (ip), vehicle: Klucel (hydroxypropylcellulose) (HPC)): 144 [survivor count not shown] and 164 % of control [survivor count not shown]
T/C [2]: 144 % of control [survivor count not shown]
T/C [3]: 119 % of control [survivor count not shown]
T/C (dose: 25.0 mg/kg/injection, schedule: Q04DX003 (iv), vehicle: saline with Tween-80): 110 % of control [survivor count not shown]
T/C (dose: 32.0 mg/kg/injection, schedule: Q04DX003 (ip), vehicle: Klucel (hydroxypropylcellulose) (HPC)): 181 % of control
T/C (dose: 48.0 mg/kg/injection, schedule: Q01DX009 (ip), vehicle: saline with Tween-80): 101 % of control [survivor count not shown]
T/C (dose: 50.0 mg/kg/injection, schedule: Q01DX009 (ip), vehicle: Klucel (hydroxypropylcellulose) (HPC)): 98 [survivor count not shown] and 114 % of control [survivor count not shown]
T/C [4]: 117 % of control [survivor count not shown]
T/C [5]: 153 % of control [survivor count not shown]
T/C (dose: 50.0 mg/kg/injection, schedule: Q04DX003 (iv), vehicle: saline with Tween-80): 111 % of control [survivor count not shown]
T/C (dose: 64.0 mg/kg/injection, schedule: Q04DX003 (ip), vehicle: Klucel (hydroxypropylcellulose) (HPC)): 108 % of control
T/C (dose: 100.0 mg/kg/injection, schedule: Q04DX003 (ip), vehicle: saline with Tween-80): 146 % of control [survivor count not shown]
T/C (dose: 100.0 mg/kg/injection, schedule: Q04DX003 (iv), vehicle: saline with Tween-80): 117 % of control [survivor count not shown]
survivor count (dose: 128.0 mg/kg/injection, schedule: Q04DX003 (ip), vehicle: Klucel (hydroxypropylcellulose) (HPC)): 4 of 8
T/C (dose: 200.0 mg/kg/injection, schedule: Q04DX003 (ip), vehicle: saline with Tween-80): 133 % of control [survivor count not shown]
T/C (dose: 200.0 mg/kg/injection, schedule: Q04DX003 (iv), vehicle: saline with Tween-80): 128 % of control [survivor count not shown]

ClCCN(CCCl)Cc1nc2cc(Cl)c(Cl)cc2[nH]1
T/C (dose: 3.13 mg/kg/injection, schedule: Q04DX003 (ip), vehicle: saline with Tween-80): 109 % of control [survivor count not shown]
T/C (dose: 6.25 mg/kg/injection, schedule: Q04DX003 (ip), vehicle: saline with Tween-80): 118 % of control [survivor count not shown]
T/C [1]: 136 % of control [survivor count not shown]
T/C (dose: 12.5 mg/kg/injection, schedule: Q04DX003 (ip), vehicle: saline with Tween-80): 118 [survivor count not shown] and 150 % of control [survivor count not shown]
T/C [2]: 145 % of control [survivor count not shown]
T/C [3]: 154 % of control [survivor count not shown]
T/C (dose: 33.0 mg/kg/injection, schedule: Q04DX003 (ip), vehicle: saline with Tween-80): 140 % of control [survivor count not shown]
T/C [4]: 163 % of control [survivor count not shown]
T/C [5]: 150 [survivor count not shown] and 172 % of control [survivor count not shown]
T/C (dose: 75.0 mg/kg/injection, schedule: Q04DX003 (ip), vehicle: saline with Tween-80): 163 % of control [survivor count not shown]

NC1(C(=O)O)CCc2ccc(N(CCCl)CCCl)cc21 (stereo not given)
T/C (dose: 12.5 mg/kg/injection, schedule: Q04DX003 (ip), vehicle: Klucel (hydroxypropylcellulose) (HPC)): 166 % of control [survivor count not shown]
T/C (dose: 25.0 mg/kg/injection, schedule: Q04DX003 (ip), vehicle: Klucel (hydroxypropylcellulose) (HPC)): 203 % of control [survivor count not shown]
T/C (dose: 50.0 mg/kg/injection, schedule: Q04DX003 (ip), vehicle: Klucel (hydroxypropylcellulose) (HPC)): 205 [survivor count not shown] and 265 % of control [survivor count not shown]
T/C (dose: 100.0 mg/kg/injection, schedule: Q04DX003 (ip), vehicle: Klucel (hydroxypropylcellulose) (HPC)): 248 % of control [survivor count not shown]
T/C (dose: 200.0 mg/kg/injection, schedule: Q04DX003 (ip), vehicle: Klucel (hydroxypropylcellulose) (HPC)): 116 % of control [survivor count not shown]

N#CC(C#N)=Cc1ccc(N(CCCl)CCCl)cc1
T/C (dose: 100.0 mg/kg/injection, schedule: Q01DX009 (ip), vehicle: saline with Tween-80): 145 % of control [survivor count not shown]
T/C (dose: 200.0 mg/kg/injection, schedule: Q01DX009 (ip), vehicle: saline with Tween-80): 165 % of control [survivor count not shown]
T/C (dose: 264.0 mg/kg/injection, schedule: Q04DX003 (ip), vehicle: saline with Tween-80): 104 % of control [survivor count not shown]
T/C (dose: 400.0 mg/kg/injection, schedule: Q01DX009 (ip), vehicle: saline with Tween-80): 150 % of control [survivor count not shown]
T/C (dose: 400.0 mg/kg/injection, schedule: Q04DX003 (ip), vehicle: saline with Tween-80): 113 % of control [survivor count not shown]
T/C (dose: 600.0 mg/kg/injection, schedule: Q04DX003 (ip), vehicle: saline with Tween-80): 177 % of control [survivor count not shown]

O=C(SCCCl)SC(Cl)C(Cl)Cl (stereo not given)
T/C (dose: 100.0 mg/kg/injection, schedule: Q01DX009 (ip), vehicle: saline): 96 % of control
T/C (dose: 200.0 mg/kg/injection, schedule: Q01DX009 (ip), vehicle: saline): 99 % of control
